# Assay results taken from the supplement of paper PMC8728848.
# The list shows a part of the results.
# B1: Mnn9-2N3 (Aspergillus fumigatus) (protein)
# chain: MAVARRMRRTNPITLLLAAILAIGFFIFVLSPSTTSASPVKAGSASSSSTSQQRREDNAAENPLSPPTKPFFKSQPVRHDGQQAPPPVVQYNLNQLSSTSTSAANGERILILTPMARFVPEYWDNVVKLTYPHELISIGFIIPKNKEGNAALAALEAAIAKTQSGPIDKRFASISILRQDFEPPLQSQDEKERHKISNQKARRESMSRARNSLLFTTLGPATAWVLWLDADIVETPPTLIQDLTAHDHPVLVPNCYQRYYNSEKKKMDVRPYDYNSWIDSSTAQSMAAEMGPDEILLEGYAEMPTYRTLMAHLADTANPNPKKVIELDGVGGTALMVKAEVHRDGAMFPAFPFYHLVETEGFAKMAKRLGYSVYGLPDYFVSRNFFFFFFFFFFG
# What was measured:
# Assay in all cases: glycan array binding signal (z-score within array); higher = stronger binding
# Conditions in all cases: glycan notation: IUPAC condensed, linker removed
# [1] = target: GalNAc(b1-4)GlcNAc(b1-2)Man
# Summary of the method: (§1)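 Arrays were curated from the Consortium for Functional Glycomics database, 3228 in total, and kept only where the protein sequence was available. Binding is expressed as a within-array Z-score. This score was averaged across arrays of the same protein sequence at different concentrations or buffers and across linkers, and negative values can be read as non-binding.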
# [2] = target: GalNAc(b1-4)GlcNAc(b1-2)Man(a1-3)[GalNAc(b1-4)GlcNAc(b1-2)Man(a1-6)]Man(b1-4)GlcNAc(b1-4)GlcNAc
# Summary of the method: as §1
# [3] = target: GalNAc(b1-4)GlcNAc(b1-3)GalNAc(b1-4)GlcNAc
# Summary of the method: as §1
# GalNAc(b1-4)GlcNAc6S = target: GalNAc(b1-4)GlcNAc6S
# Summary of the method: as §1
# GalNAc(b1-6)GalNAc = target: GalNAc(b1-6)GalNAc
# Summary of the method: as §1
# GalNAc3S(b1-4)GlcNAc = target: GalNAc3S(b1-4)GlcNAc
# Summary of the method: as §1
# GalNAc3S(b1-4)GlcNAc3S = target: GalNAc3S(b1-4)GlcNAc3S
# Summary of the method: as §1
# [4] = target: GalNAc3S(b1-4)[Fuc(a1-3)]GlcNAc
# Summary of the method: as §1
# GalNAc4S6S(b1-4)GlcNAc = target: GalNAc4S6S(b1-4)GlcNAc
# Summary of the method: as §1
# GalNAc6S(b1-4)GlcNAc = target: GalNAc6S(b1-4)GlcNAc
# Summary of the method: as §1
# Glc(a1-4)Glc = target: Glc(a1-4)Glc
# Summary of the method: as §1
# [5] = target: Glc(a1-4)Glc(a1-4)Glc(a1-4)Glc
# Summary of the method: as §1
# Glc(a1-6)Glc(a1-6)Glc = target: Glc(a1-6)Glc(a1-6)Glc
# Summary of the method: as §1
# [6] = target: Glc(a1-6)Glc(a1-6)Glc(a1-6)Glc
# Summary of the method: as §1
# Glc(b1-4)Glc = target: Glc(b1-4)Glc
# Summary of the method: as §1
# Glc(b1-6)Glc = target: Glc(b1-6)Glc
# Summary of the method: as §1
# GlcA(b1-3)Gal = target: GlcA(b1-3)Gal
# Summary of the method: as §1
# GlcA(b1-3)GlcNAc = target: GlcA(b1-3)GlcNAc
# Summary of the method: as §1
# GlcA(b1-6)Gal = target: GlcA(b1-6)Gal
# Summary of the method: as §1
# [7] = target: GlcA3S(b1-3)Gal(b1-4)GlcNAc(b1-2)Man
# Summary of the method: as §1
# [8] = target: GlcA3S(b1-3)Gal(b1-4)GlcNAc(b1-3)Gal(b1-4)Glc
# Summary of the method: as §1
# [9] = target: GlcNAc(a1-3)Gal(b1-4)GlcNAc
# Summary of the method: as §1
# [10] = target: GlcNAc(a1-4)Gal(b1-3)GlcNAc
# Summary of the method: as §1
# [11] = target: GlcNAc(a1-4)Gal(b1-4)GalNAc
# Summary of the method: as §1
# [12] = target: GlcNAc(a1-4)Gal(b1-4)GlcNAc
# Summary of the method: as §1
# [13] = target: GlcNAc(a1-4)Gal(b1-4)GlcNAc(b1-3)Gal(b1-4)Glc
# Summary of the method: as §1
# [14] = target: GlcNAc(a1-4)Gal(b1-4)GlcNAc(b1-3)Gal(b1-4)GlcNAc
# Summary of the method: as §1
# [15] = target: GlcNAc(a1-4)Gal(b1-4)GlcNAc(b1-3)Gal(b1-4)GlcNAc(b1-3)Gal(b1-4)GlcNAc
# Summary of the method: as §1
# [16] = target: GlcNAc(a1-4)Gal(b1-4)GlcNAc(b1-3)Gal(b1-4)[Fuc(a1-3)]GlcNAc(b1-3)Gal(b1-4)[Fuc(a1-3)]GlcNAc
# Summary of the method: as §1
# [17] = target: GlcNAc(a1-6)Gal(b1-4)GlcNAc
# Summary of the method: as §1
# [18] = target: GlcNAc(b1-2)Gal(b1-3)GalNAc
# Summary of the method: as §1
# [19] = target: GlcNAc(b1-2)Man(a1-3)[GlcNAc(b1-2)Man(a1-6)]Man(b1-4)GlcNAc(b1-4)GlcNAc
# Summary of the method: as §1
# [20] = target: GlcNAc(b1-2)Man(a1-3)[GlcNAc(b1-2)Man(a1-6)]Man(b1-4)GlcNAc(b1-4)[Fuc(a1-6)]GlcNAc
# Summary of the method: as §1
# [21] = target: GlcNAc(b1-2)Man(a1-3)[GlcNAc(b1-4)][GlcNAc(b1-2)Man(a1-6)]Man(b1-4)GlcNAc(b1-4)GlcNAc
# Summary of the method: as §1
# [22] = target: GlcNAc(b1-2)Man(a1-3)[GlcNAc(b1-4)][GlcNAc(b1-2)Man(a1-6)]Man(b1-4)GlcNAc(b1-4)[Fuc(a1-6)]GlcNAc
# Summary of the method: as §1
# [23] = target: GlcNAc(b1-2)[GlcNAc(b1-4)]Man(a1-3)[GlcNAc(b1-2)Man(a1-6)]Man(b1-4)GlcNAc(b1-4)GlcNAc
# Summary of the method: as §1
# [24] = target: GlcNAc(b1-2)[GlcNAc(b1-4)]Man(a1-3)[GlcNAc(b1-4)][GlcNAc(b1-2)Man(a1-6)]Man(b1-4)GlcNAc(b1-4)GlcNAc
# Summary of the method: as §1
# [25] = target: GlcNAc(b1-2)[GlcNAc(b1-4)]Man(a1-3)[GlcNAc(b1-4)][GlcNAc(b1-2)[GlcNAc(b1-6)]Man(a1-6)]Man(b1-4)GlcNAc(b1-4)GlcNAc
# Summary of the method: as §1
# [26] = target: GlcNAc(b1-2)[GlcNAc(b1-4)]Man(a1-3)[GlcNAc(b1-4)][GlcNAc(b1-2)[GlcNAc(b1-6)]Man(a1-6)]Man(b1-4)GlcNAc(b1-4)[Fuc(a1-6)]GlcNAc
# Summary of the method: as §1
# [27] = target: GlcNAc(b1-2)[GlcNAc(b1-6)]Man(a1-6)[GlcNAc(b1-2)Man(a1-3)]Man(b1-4)GlcNAc(b1-4)GlcNAc
# Summary of the method: as §1
# [28] = target: GlcNAc(b1-2)[GlcNAc(b1-6)]Man(a1-6)[GlcNAc(b1-2)Man(a1-3)]Man(b1-4)GlcNAc(b1-4)[Fuc(a1-6)]GlcNAc
# Summary of the method: as §1
# [29] = target: GlcNAc(b1-2)[GlcNAc(b1-6)]Man(a1-6)[GlcNAc(b1-4)][GlcNAc(b1-2)Man(a1-3)]Man(b1-4)GlcNAc(b1-4)GlcNAc
# Summary of the method: as §1
# GlcNAc(b1-3)Fuc = target: GlcNAc(b1-3)Fuc
# Summary of the method: as §1
# GlcNAc(b1-3)Gal = target: GlcNAc(b1-3)Gal
# Summary of the method: as §1
# [30] = target: GlcNAc(b1-3)Gal(b1-3)GalNAc
# Summary of the method: as §1
binder,measurement,setting,value
B1,glycan array binding signal (z-score),[1],-0.117
same,glycan array binding signal (z-score),[2],-0.507
same,glycan array binding signal (z-score),[3],-0.285
same,glycan array binding signal (z-score),GalNAc(b1-4)GlcNAc6S,-0.484
same,glycan array binding signal (z-score),GalNAc(b1-6)GalNAc,-0.275
same,glycan array binding signal (z-score),GalNAc3S(b1-4)GlcNAc,-0.505
same,glycan array binding signal (z-score),GalNAc3S(b1-4)GlcNAc3S,-0.856
same,glycan array binding signal (z-score),[4],-0.385
same,glycan array binding signal (z-score),GalNAc4S6S(b1-4)GlcNAc,-0.839
same,glycan array binding signal (z-score),GalNAc6S(b1-4)GlcNAc,-0.802
same,glycan array binding signal (z-score),Glc(a1-4)Glc,0.556
same,glycan array binding signal (z-score),[5],-2.33
same,glycan array binding signal (z-score),Glc(a1-6)Glc(a1-6)Glc,1.82
same,glycan array binding signal (z-score),[6],-0.815
same,glycan array binding signal (z-score),Glc(b1-4)Glc,0.692
same,glycan array binding signal (z-score),Glc(b1-6)Glc,-0.132
same,glycan array binding signal (z-score),GlcA(b1-3)Gal,0.326
same,glycan array binding signal (z-score),GlcA(b1-3)GlcNAc,-0.721
same,glycan array binding signal (z-score),GlcA(b1-6)Gal,-0.442
same,glycan array binding signal (z-score),[7],-0.254
same,glycan array binding signal (z-score),[8],-1.04
same,glycan array binding signal (z-score),[9],0.276
same,glycan array binding signal (z-score),[10],-0.193
same,glycan array binding signal (z-score),[11],-0.428
same,glycan array binding signal (z-score),[12],-0.088
same,glycan array binding signal (z-score),[13],-0.061
same,glycan array binding signal (z-score),[14],0.007
same,glycan array binding signal (z-score),[15],-0.067
same,glycan array binding signal (z-score),[16],-0.189
same,glycan array binding signal (z-score),[17],0.159
same,glycan array binding signal (z-score),[18],0.148
same,glycan array binding signal (z-score),[19],0.173
same,glycan array binding signal (z-score),[20],-0.486
same,glycan array binding signal (z-score),[21],-0.144
same,glycan array binding signal (z-score),[22],0.138
same,glycan array binding signal (z-score),[23],-0.363
same,glycan array binding signal (z-score),[24],0.657
same,glycan array binding signal (z-score),[25],-0.559
same,glycan array binding signal (z-score),[26],1.36
same,glycan array binding signal (z-score),[27],2.16
same,glycan array binding signal (z-score),[28],0.58
same,glycan array binding signal (z-score),[29],0.567
same,glycan array binding signal (z-score),GlcNAc(b1-3)Fuc,-0.718
same,glycan array binding signal (z-score),GlcNAc(b1-3)Gal,1.58
same,glycan array binding signal (z-score),[30],-0.43

# Copied from the listing (four entries):
binder,measurement,setting,value
B1,glycan array binding signal (z-score),Glc(a1-4)Glc,0.556
same,glycan array binding signal (z-score),[5],-2.33
same,glycan array binding signal (z-score),Glc(a1-6)Glc(a1-6)Glc,1.82
same,glycan array binding signal (z-score),[6],-0.815
